# Source: PubChem BioAssay AID504847 (National Center for Advancing Translational Sciences (NCATS), 2011)
# Chains of the proteins cited; added tags and fusions are not shown. Lines headed by an entry give the natural chain unless they say otherwise; changes in a name come on top.
# UniProt P11473: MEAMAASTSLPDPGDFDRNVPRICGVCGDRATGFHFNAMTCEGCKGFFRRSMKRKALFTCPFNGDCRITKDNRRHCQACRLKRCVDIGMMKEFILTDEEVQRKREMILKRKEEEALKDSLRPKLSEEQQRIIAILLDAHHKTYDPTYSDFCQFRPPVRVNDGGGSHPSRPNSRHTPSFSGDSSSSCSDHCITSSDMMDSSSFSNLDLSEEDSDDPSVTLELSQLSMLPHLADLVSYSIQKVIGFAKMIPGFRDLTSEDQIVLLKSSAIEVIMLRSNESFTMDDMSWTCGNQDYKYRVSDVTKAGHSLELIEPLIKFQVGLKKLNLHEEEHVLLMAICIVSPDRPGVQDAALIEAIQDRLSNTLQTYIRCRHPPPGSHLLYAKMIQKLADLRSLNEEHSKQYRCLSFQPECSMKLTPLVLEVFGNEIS
# Screen size: about 400,000 compounds; about 3,700 (0.93%) were called active. The shares of active, inactive and inconclusive entries below differ from those in the screen. Calls come from the whole dose curve; as a rule, active = well fitted inhibition curve with a large enough effect; inconclusive = small, poorly fitted or top-dose-only effect, or another doubt; inactive = no such curve, though single readings can be large or run the other way. Potencies of inconclusive entries are doubtful fits and often do not repeat.
# Target: Vitamin D3 receptor (Homo sapiens) (UniProt P11473)
# Experiment: Inhibitors of the vitamin D receptor (VDR): qHTS
# Conditions: VDR-SRC2-3 peptide fluorescence polarization, 2 h; max response, negative = inhibition: hits give low values
# In short: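 Fluorescence polarization assay of small-molecule disruption of VDR binding to coregulator peptide SRC2-3. Compounds and controls pin-transferred, then read after 2 h incubation at ambient room temperature.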
# % is set by controls: 0 for no effect and ±100 for the full control effect; potency is the fitted concentration of half-maximal effect.
Compound,"max response, negative = inhibition",Potency
O=C(NCCc1cccc(C(F)(F)F)c1)C1CCC(=O)N(CCc2cccc(F)c2)C1 (centres undefined),inactive: -0.569%,–
CC(C)(C)OC(=O)C[C@H]1C/C=C\C[C@@H](CC(=O)N(CCO)Cc2ccccc2)C(=O)N[C@H](Cc2ccccc2)COC1=O,inactive: -18.7%,–
O=C(Nc1ccccc1Br)C1CC(=O)N(c2ccc3c4c(cccc24)CC3)C1 (centres undefined),inactive: 4.09%,–
COc1cccc(-c2coc3c(C)c4oc(=O)c(CCC(=O)O)c(C)c4cc23)c1,–,"inconclusive: 39.8 µM [inhibitor, partial curve]"
CCCn1c(C(O)c2ccc(OC)cc2)nc2ccccc21 (centres undefined),inactive: -7.65%,–
N#CC(=C1C=CC(=NO)C(Cl)=C1)c1ccc(Cl)cc1,–,"inconclusive: 100 µM [inhibitor, single point]"
Oc1cccc(C=NCc2ccccc2)c1O,–,"inconclusive: 100 µM [inhibitor, single point]"
COc1ccc(C2CC23N=C(c2ccccc2)OC3=O)cc1 (centres undefined),–,"inconclusive: 63.1 µM [inhibitor, partial curve, poor fit]"
O=C(O)c1ccc(NS(=O)(=O)c2ccc3nnn(O)c3c2)cc1,inactive: -4.55%,–
CCn1c2ccccc2c2cc(NC(=O)COc3ccc(C)c(C)c3)ccc21,–,"inconclusive: 89.1 µM [inhibitor, partial curve, poor fit]"
COc1cc(CN2CC(=O)N(c3ccccc3Cl)C2=S)cc(OC)c1OC,inactive: 3.75%,–
CCC1=NN2C(=N)/C(=C\c3ccc(OCc4cc(=O)n5nc(CC)sc5n4)c(OC)c3)C(=O)N=C2S1,inactive: -5.08%,–
Cc1cccc(C)c1NC(=O)CS(=O)CC(=O)NC1CCCc2ccccc21 (centres undefined),–,"inconclusive: 44.7 µM [inhibitor, partial curve, poor fit]"
COc1ccc(C(=O)/C=C/c2ccc(N3CCCCC3)c([N+](=O)[O-])c2)c(OC)c1,–,"inconclusive: 100 µM [inhibitor, single point]"
COc1ccc2nc(NC(=S)N(C)C)sc2c1,–,"inconclusive: 79.4 µM [inhibitor, partial curve, poor fit]"
CCN(C(=O)COC(=O)/C=C/c1ccc(C)o1)c1c(N)n(Cc2ccccc2)c(=O)[nH]c1=O,inactive: -16.8%,–
O=C(O)CSc1cc(C(=O)c2ccccc2O)cn2c(=O)c3c4c(sc3nc12)CCCC4,inactive: -12.1%,–
O=C(C1CC(=O)N(c2ccccc2)C1)N1CCC(c2nc3ccccc3[nH]2)CC1 (centres undefined),–,"inconclusive: 79.4 µM [inhibitor, single point]"
Cc1c(N2C(=O)/C(=C\c3ccccc3O)SC2=S)c(=O)n(-c2ccccc2)n1C,–,"inconclusive: 31.6 µM [inhibitor, single point]"
O=[N+]([O-])c1cc(S(=O)(=O)C(F)(F)F)ccc1Sc1nc2ccccc2s1,–,active: 35.5 µM
O=C1C(C2=C(O)c3ccccc3C2=O)=Nc2ccccc21,–,active: 12.6 µM
O=c1cnnc(SCCc2ccccc2)[nH]1,–,"inconclusive: 15.8 µM [inhibitor, partial curve, poor fit]"

# For convenience, 19 of the compounds above:
Compound,"max response, negative = inhibition",Potency
COc1cccc(-c2coc3c(C)c4oc(=O)c(CCC(=O)O)c(C)c4cc23)c1,–,"inconclusive: 39.8 µM [inhibitor, partial curve]"
CCCn1c(C(O)c2ccc(OC)cc2)nc2ccccc21 (centres undefined),inactive: -7.65%,–
N#CC(=C1C=CC(=NO)C(Cl)=C1)c1ccc(Cl)cc1,–,"inconclusive: 100 µM [inhibitor, single point]"
Oc1cccc(C=NCc2ccccc2)c1O,–,"inconclusive: 100 µM [inhibitor, single point]"
COc1ccc(C2CC23N=C(c2ccccc2)OC3=O)cc1 (centres undefined),–,"inconclusive: 63.1 µM [inhibitor, partial curve, poor fit]"
O=C(O)c1ccc(NS(=O)(=O)c2ccc3nnn(O)c3c2)cc1,inactive: -4.55%,–
CCn1c2ccccc2c2cc(NC(=O)COc3ccc(C)c(C)c3)ccc21,–,"inconclusive: 89.1 µM [inhibitor, partial curve, poor fit]"
COc1cc(CN2CC(=O)N(c3ccccc3Cl)C2=S)cc(OC)c1OC,inactive: 3.75%,–
CCC1=NN2C(=N)/C(=C\c3ccc(OCc4cc(=O)n5nc(CC)sc5n4)c(OC)c3)C(=O)N=C2S1,inactive: -5.08%,–
Cc1cccc(C)c1NC(=O)CS(=O)CC(=O)NC1CCCc2ccccc21 (centres undefined),–,"inconclusive: 44.7 µM [inhibitor, partial curve, poor fit]"
COc1ccc(C(=O)/C=C/c2ccc(N3CCCCC3)c([N+](=O)[O-])c2)c(OC)c1,–,"inconclusive: 100 µM [inhibitor, single point]"
COc1ccc2nc(NC(=S)N(C)C)sc2c1,–,"inconclusive: 79.4 µM [inhibitor, partial curve, poor fit]"
CCN(C(=O)COC(=O)/C=C/c1ccc(C)o1)c1c(N)n(Cc2ccccc2)c(=O)[nH]c1=O,inactive: -16.8%,–
O=C(O)CSc1cc(C(=O)c2ccccc2O)cn2c(=O)c3c4c(sc3nc12)CCCC4,inactive: -12.1%,–
O=C(C1CC(=O)N(c2ccccc2)C1)N1CCC(c2nc3ccccc3[nH]2)CC1 (centres undefined),–,"inconclusive: 79.4 µM [inhibitor, single point]"
Cc1c(N2C(=O)/C(=C\c3ccccc3O)SC2=S)c(=O)n(-c2ccccc2)n1C,–,"inconclusive: 31.6 µM [inhibitor, single point]"
O=[N+]([O-])c1cc(S(=O)(=O)C(F)(F)F)ccc1Sc1nc2ccccc2s1,–,active: 35.5 µM
O=C1C(C2=C(O)c3ccccc3C2=O)=Nc2ccccc21,–,active: 12.6 µM
O=c1cnnc(SCCc2ccccc2)[nH]1,–,"inconclusive: 15.8 µM [inhibitor, partial curve, poor fit]"

# (cont.)

Compound,"max response, negative = inhibition",Potency
CCC(C)NC(=O)C1CCN(S(=O)(=O)c2cccnc2)CC1 (centres undefined),–,"inconclusive: 56.2 µM [inhibitor, partial curve, poor fit]"
Cc1cccc(N2CCN(C3(c4ccccc4)C(=O)c4ccccc4C3=O)CC2C)c1 (centres undefined),inactive: 8.07%,–
Cc1ccccc1NC(=O)CSc1nc(N)c2c3c(sc2n1)CSC(C)(C)C3,inactive: 1.95%,–
Cc1nnc(N2CCN(c3ccccc3F)CC2)c2c1nnn2Cc1ccccc1,inactive: -1.29%,–
Cc1ccnc(SCC(=O)N2CCc3ccccc32)n1,inactive: -10.9%,–
S=c1nccc(-c2ccc3c(c2)CCO3)[nH]1,–,"inconclusive: 70.8 µM [inhibitor, partial curve]"
CSc1ccccc1NC(=O)c1cc(C2CC2)on1,–,"inconclusive: 35.5 µM [inhibitor, partial curve, poor fit]"
CCOc1ccc(CCNC(=O)COC(=O)Cn2cnc3c2c(=O)n(C)c(=O)n3C)cc1OCC,–,"inconclusive: 89.1 µM [inhibitor, single point]"
CCCCN(C(=O)c1ccc(Br)o1)C1CCS(=O)(=O)C1 (centres undefined),inactive: -5.54%,–
O=C1C=CC2=C3c4cc(O)c(O)cc4C[C@@]3(O)COC2=C1,–,active: 11.2 µM
O=C(c1ccc(CSc2nc3ccncc3[nH]2)cc1)N1CCCCC1,inactive: -8.78%,–
O=[N+]([O-])c1cnccc1Nc1ccccc1,–,"inconclusive: 22.4 µM [inhibitor, partial curve, poor fit]"
O=C(NN(C(=O)c1ccccc1)c1cccs1)c1ccccc1,–,"inconclusive: 35.5 µM [inhibitor, partial curve, poor fit]"
O=C(O)c1cc2n(n1)C(C(F)(F)F)CC(C1CC1)N2 (centres undefined),–,"inconclusive: 25.1 µM [inhibitor, partial curve]"
NC(=O)C1CCN(c2cc(Cl)nc(N)n2)CC1,–,active: 79.4 µM
O=C(O)CSc1cc(NS(=O)(=O)c2ccc(Br)cc2)c2ccccc2c1O,–,active: 15.8 µM
Cc1nn(CC(=O)NCc2cccc3ccccc23)c(=O)c2ccccc12,–,"inconclusive: 31.6 µM [inhibitor, partial curve, poor fit]"
COC(=O)CCC(=O)OC1(C)C(=O)C=C2C=C(c3ccc(C#N)cc3)OC=C2C1=O (centres undefined),–,"inconclusive: 89.1 µM [inhibitor, partial curve, poor fit]"
Fc1cccc(CSc2nc3ccncc3[nH]2)c1,–,"inconclusive: 0.562 µM [inhibitor, full curve, poor fit]"
Cc1oc(/C=N/NS(=O)(=O)c2ccccc2)cc1Br,inactive: -15.9%,–
Cc1cccc(Cc2c(C)nc3nc(SCC(=O)O)nn3c2C)c1,–,"inconclusive: 100 µM [inhibitor, single point]"
CC(C)(C)NC(=O)C(c1ccco1)N(C(=O)Cn1nnc(-c2ccc(F)cc2)n1)c1ccccc1F (centres undefined),inactive: -20.3%,–

Compound,"max response, negative = inhibition",Potency
Cc1ccc(C)c2nc(N3CCCC3)c(C#N)cc12,–,"inconclusive: 89.1 µM [inhibitor, single point]"
O=C(COc1ccc(Cl)cc1Cl)NNC(=S)NC(=O)c1ccco1,inactive: 3.4%,–
CC(C)(C)c1ccc(C(=O)NNc2ccc(F)cc2F)cc1,–,"inconclusive: 89.1 µM [inhibitor, single point]"
Cc1ccc(C2CC(=O)C=C(NCC(C)C)C2)cc1 (centres undefined),–,"inconclusive: 56.2 µM [inhibitor, partial curve, poor fit]"
CN(C)CCCn1c(=O)n(CCc2ccccc2)c(=O)c2c3c(sc21)CCCCC3,–,"inconclusive: 31.6 µM [inhibitor, partial curve, poor fit]"
COc1ccccc1C(=O)C1CCCN(Cc2ccc(Oc3ncccn3)cc2)C1 (centres undefined),–,"inconclusive: 35.5 µM [inhibitor, single point]"
Cc1nn(-c2ccccc2)c(N2CCCC2)c1/C=C1\N=C(c2ccc(F)cc2)OC1=O,–,"inconclusive: 8.91 µM [inhibitor, partial curve, poor fit]"
Cc1ccc2scc(CN3CCCC3)c2c1,inactive: -9.4%,–
O=S(=O)(NCC(c1cccnc1)N1CCN(c2ccc(F)cc2)CC1)c1cccs1 (centres undefined),inactive: -25.3%,–
COc1cc(C2c3cc(O)c(OC)cc3CC(C(=O)O)C2CO)ccc1O (centres undefined),–,"inconclusive: 100 µM [inhibitor, single point]"
CC(NC(=O)c1sc2cc([N+](=O)[O-])ccc2c1Cl)C(C)(C)C (centres undefined),–,"inconclusive: 50.1 µM [inhibitor, partial curve, poor fit]"
CCc1ccc(-c2nc3c(=O)n(C)c(=O)nc-3n(CC)n2)cc1,–,"inconclusive: 22.4 µM [inhibitor, partial curve, poor fit]"
COc1ccccc1/C=C(\C#N)C(=O)c1cccn1C,–,"inconclusive: 50.1 µM [inhibitor, partial curve, poor fit]"
c1ccc(CN(Cc2ccco2)C(c2ccncc2)c2nnnn2C2CCCC2)cc1 (centres undefined),–,active: 28.2 µM
CC[C@H](C)[C@H](NC(=O)[C@H](CC(C)C)NC(=O)[C@H](CO)NC(=O)[C@H](CCC(=O)O)NC(=O)[C@H](CC(C)C)NC(=O)[C@H](Cc1ccc(O)cc1)NC(=O)[C@H](CCCCN)NC(=O)[C@H](CCCCN)NC(=O)[C@H](C)NC(=O)[C@H](CO)NC(=O)[C@H](CC(C)C)NC(=O)[C@H](CCC(N)=O)NC(=O)CNC(=O)[C@H](CC(C)C)NC(=O)[C@H](CC(C)C)NC(=O)[C@H](CCCNC(=N)N)NC(=O)[C@H](CO)NC(=O)[C@H](Cc1ccccc1)NC(=O)[C@H](CC(=O)O)NC(=O)[C@H](CO)NC(=O)[C@@H](NC(=O)[C@H](Cc1ccccc1)NC(=O)[C@@H](NC(=O)CNC(=O)[C@H](CC(=O)O)NC(=O)[C@H](C)NC(=O)[C@@H](N)Cc1cnc[nH]1)C(C)C)[C@@H](C)O)C(N)=O,inactive: 0.214%,–
Cc1ccc(NC(=O)CCS(=O)(=O)c2ccc(Br)cc2)nc1,–,active: 50.1 µM
CN(Cc1cccc(F)c1)C(=O)Cc1ccc(S(=O)(=O)N2CCOCC2)s1,–,"inconclusive: 89.1 µM [inhibitor, single point]"
Cc1ccc(Cl)cc1NC(=O)C(=O)NCC(c1cccnc1)N1CCc2ccccc21 (centres undefined),inactive: 6.33%,–
CC(=O)NC1=CC(=O)c2nonc2C1=O,–,active: 56.2 µM
COc1cc(/C=C2\C(=N)N3N=C(S(C)(=O)=O)SC3=NC2=O)cc(OC)c1OCCOc1ccccc1C,–,"inconclusive: 79.4 µM [inhibitor, single point]"
